This note sets out measurements from the supplement of paper PMC9135407.

Where “and” joins values, the source holds several entries; their conditions need not be identical. Equal values may be shown once. Where a name gives a salt, the structure may show the parent alone. ± gives the standard deviation of the averaged measurements. The list shows a part of the results. Plates or batches differ in their baseline, so values are only roughly comparable.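 Culture-activated primary human stellate myofibroblasts, where regained lipid droplets signal inactivation. Value: share of Hoechst-counted cells above a per-plate Bodipy cutoff, in duplicate wells, with DMSO negative and nortriptyline positive controls on each plate. Hits: a control-normalized score above the plate's top-tenth-percentile nortriptyline wells, or one of a plate's three best wells. Final well concentrations are not given.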

This experiment relates to primary human hepatic stellate cells (donor 1). As to the kind of experiment: percent Bodipy-positive cells; higher = more lipid droplet accumulation. The following applies: 48 h.
The mark [1] stands for this setting: library stock concentration: 10 mM.
[2] abbreviates: library stock concentration: 3.33 mM.
The mark [3] stands for this setting: library stock concentration: 1 mM.

Turning to `CC(C)(C)OC(=O)NC1[C@H]2CNC[C@@H]12` (stereo partly specified), under setting [1], the “percent Bodipy-positive cells” value was determined as 37.7 ± 1.1%.
The same measure, in the same setting: in the case of `COc1ccc(CNC(=O)/C=C/c2ccc3[nH]cc(CCN(C)C)c3c2)cc1` it was 56 ± 3.3%.
In the case of `NC(=O)C[S@@+]([O-])C(c1ccccc1)c1ccccc1`, the “percent Bodipy-positive cells” value under setting [1] was found to be 26.7 ± 5.9%.
For `C[CH2][Hg][S]c1ccccc1C(=O)[O-].[Na+]` [Thimerosal], the “percent Bodipy-positive cells” value was 72.2 ± 13% (library stock concentration: 4.9 mM) and 99.03 ± 0.62% under setting [1].
For the compound `NC(=O)CN1CC(O)CC1=O` (stereo unspecified) [Oxiracetam], the “percent Bodipy-positive cells” value was 9.74 ± 2% under setting [2]; 30.1% and 53.9% under setting [1].
On to `COc1ccn(C)c(=O)c1C#N` [Ricinine], for which the “percent Bodipy-positive cells” value was 10 ± 4.4%.
As for `CCCCC/C=C\C/C=C\C/C=C\C/C=C\CCC(C)C(=O)NCCF` (stereo unspecified), the “percent Bodipy-positive cells” value under setting [3] was found to be 14.6 ± 2.6%.
Take `CC1=CCCC2C1(C)CCC(C)C2(C)CC/C(C)=C/Cn1c[n+](C)c2c(N)ncnc21` (stereo unspecified) [Agelasine (stereochemistry of diterpene unknown)]: the “percent Bodipy-positive cells” value under setting [1] worked out at 59.8 ± 15%.
The same measure, in the same setting: for `Cl.Clc1ccc(N2CCN(Cc3c[nH]c4ncccc34)CC2)cc1` [L-745,870 hydrochloride] the value was 99.26 ± 0.27%.
For the compound `O=C(CCCN1CCC2(CC1)C(=O)NCN2c1ccccc1)c1ccc(F)cc1` [Spiperone], the “percent Bodipy-positive cells” value worked out at 33.5 ± 0.94%. Also, the “percent Bodipy-positive cells” value (library stock concentration: 5.1 mM) is 33.37 ± 0.22%. The “percent Bodipy-positive cells” value under setting [1] amounted to 25.5 ± 1.3%.
As to `CC(C)C[C@H]1C(=O)N2CCC[C@H]2[C@]2(O)O[C@](NC(=O)[C@@H]3C=C4c5cccc6[nH]cc(c56)C[C@H]4N(C)C3)(C(C)C)C(=O)N12` [Ergocryptine-alpha], the “percent Bodipy-positive cells” value was found to be 6.61 ± 2.1%.
In the case of `CC(N)C(O)c1ccccc1` (stereo unspecified) [Phenylpropanolamine], the “percent Bodipy-positive cells” value (library stock concentration: 13.2 mM) was 5.75 ± 0.61%.
Consider `CC(N)C(O)c1ccccc1` (stereo unspecified) [Phenylpropanolamine hydrochloride], for which the “percent Bodipy-positive cells” value is 26.3 ± 4.3%. Besides, the “percent Bodipy-positive cells” value (library stock concentration: 10.7 mM) worked out at 4.37 ± 0.29%.
Take `COC(=O)N1CCN(C(=O)Cc2ccc(Cl)c(Cl)c2)C(CN2CCCC2)C1.O=C(O)/C=C/C(=O)O` (stereo unspecified): the “percent Bodipy-positive cells” value under setting [1] amounted to 88.8 ± 6.5%.
Same read-out and setting: for `COC[C@H]1OC(=O)c2coc3c2[C@@]1(C)C1=C(C3=O)C2CCC(=O)[C@@]2(C)C[C@H]1OC(C)=O` (stereo partly specified) [Wortmannin from Penicillium funiculosum] the value was 30.4 ± 6.2%; for `CCCCC1(C2CCCC2)Cc2cc(OCCCC(=O)O)c(Cl)c(Cl)c2C1=O` (stereo unspecified), 15.2 ± 3.7%; for `CC(C)Oc1cccnc1N(C)C1CCN(Cc2ccccc2)CC1`, 41.7 ± 13%.
On to `CCN1C[C@]2(COC)CC[C@H](OC)[C@]34C5C[C@@H]6[C@@H](OC)C[C@@]7(OCO[C@@]7(C13)[C@@H](O)C24)C5[C@H]6OC` (stereo partly specified) [Delcorine], for which the “percent Bodipy-positive cells” value came out at 6.74 ± 4.9%.
As to `Fc1ccc(C(OCCN2CCN(C/C=C/c3ccccc3)CC2)c2ccc(F)cc2)cc1`, the “percent Bodipy-positive cells” value under setting [1] stood at 44.4 ± 11%.
In the case of `O=[N+]([O-])O[C@H]1CO[C@H]2[C@@H]1OC[C@H]2O[N+](=O)[O-]` [Isosorbide dinitrate], the “percent Bodipy-positive cells” value turned out to be 9.52 ± 4%. In addition, the “percent Bodipy-positive cells” value under setting [1] worked out at 16 ± 7.6%.
Regarding `CCCCCCCCCCCCCCCCOCC(COP(=O)([O-])OCC[N+](C)(C)C)OC(C)=O` (stereo not drawn) [Enantio-PAF C16], the “percent Bodipy-positive cells” value under setting [3] worked out at 4.55 ± 1.6%.
Regarding `CCN1C[C@]2(COC)CC[C@H](O)[C@]34C1[C@@](O)([C@@H](OC)[C@H]23)[C@@]1(O)C[C@H](OC)[C@H]2C[C@@H]4[C@@H]1[C@H]2OC` [Delsoline], the “percent Bodipy-positive cells” value amounted to 7.314 ± 0.026%.
Still for that read-out and setting: in the case of `CC[C@@H](C)C(=O)O[C@H]1[C@H](O)[C@H]2[C@@H](CN3C[C@@H](C)CC[C@H]3[C@@]2(C)O)[C@@H]2C[C@]34O[C@]5(O)[C@@H](OC(=O)[C@@](C)(O)CC)CC[C@@]3(C)[C@@H]5[C@@H](OC(C)=O)[C@@H](OC(C)=O)[C@H]4[C@@]21O` [Protoveratrine A] it was 18.8 ± 7.1%.
As to `CC[C@@H](C)C(=O)O[C@H]1[C@H](O)[C@H]2[C@@H](CN3C[C@@H](C)CC[C@H]3[C@@]2(C)O)[C@@H]2C[C@]34O[C@]5(O)[C@@H](OC(=O)[C@@](C)(O)CC)CC[C@@]3(C)[C@@H]5[C@@H](OC(C)=O)[C@@H](OC(C)=O)[C@H]4[C@@]21O` [Protoveratrine a], the “percent Bodipy-positive cells” value under setting [1] came out at 21.2 ± 3%.
As for `O=c1cccc2n1C[C@@H]1CNC[C@H]2C1` [Cytisine (-)], the “percent Bodipy-positive cells” value was determined as 36.4 ± 14%.
Turning to `O=c1cccc2n1C[C@@H]1CNC[C@H]2C1` [Cytisine], the “percent Bodipy-positive cells” value under setting [2] is 8.51 ± 3.8%.
Take `O=c1cccc2n1C[C@@H]1CNC[C@H]2C1` [(-)-Cytisine]: under setting [1], the “percent Bodipy-positive cells” value is 10.3 ± 2.9%.
`NCC1(CC(=O)O)CCCCC1` [Gabapentin]: the “percent Bodipy-positive cells” value was 8.92 ± 3.1%. Under setting [3], the “percent Bodipy-positive cells” value was 10.4 ± 0.6%.
In the case of `O=C1C2CCN(CC2)C1(CO)CO`, the “percent Bodipy-positive cells” value (library stock concentration: 27 mM) amounted to 97.4 ± 2.6%.
As to `Cl.Cl.Fc1ccc(C(OCCN2CCN(CCCc3ccccc3)CC2)c2ccc(F)cc2)cc1`, under setting [1], the “percent Bodipy-positive cells” value is 82.1 ± 1%.
As for `Cl.Oc1ccc2c3c1O[C@H]1c4[nH]c5ccccc5c4C[C@@]4(O)C(C2)N(CC2CC2)CC[C@]314` [Naltrindole hydrochloride], the “percent Bodipy-positive cells” value under setting [1] amounted to 80.3 ± 4.3%.
Turning to `CCN1CCN(C(=O)Cc2ccc(Nc3ncc(F)c(Nc4ccc(C(=O)Nc5ccccc5Cl)cc4)n3)cc2)CC1`, the “percent Bodipy-positive cells” value is, setting by setting: (library stock concentration: 80 uM) 25.2 ± 25%; (library stock concentration: 400 uM) 12.5 ± 2.9%; (library stock concentration: 2 mM) 66.3 ± 5.8%; under setting [1], 99.17 ± 0.23%.
For the compound `CCN1CCN(C(=O)Cc2ccc(Nc3ncc(F)c(Nc4ccc(C(=O)Nc5ccccc5Cl)cc4)n3)cc2)CC1` [Aurora A Inhibitor I], under setting [2], the “percent Bodipy-positive cells” value amounted to 92.3 ± 2.3%.
For the compound `CCCn1c(=O)c2[nH]c(C3CCCC3)nc2n(CCCOC(=O)c2ccc(S(=O)(=O)F)cc2)c1=O`, the “percent Bodipy-positive cells” value under setting [1] was 67 ± 4.7%.
Take `CN1CCc2cc3c(cc2C1C1OC(=O)c2c1ccc1c2OCO1)OCO3` (single isomer, unassigned; (+)) [(+)-Bicuculline]: the “percent Bodipy-positive cells” value was 12.3 ± 4.6% under setting [2]; 28.3% and 6.69% under setting [1].
